Drawing on PMC5825162, this text covers binding for one substance.

Chains of the proteins cited; added tags and fusions are not shown. Residues count along the entry.
UniProt F5HAK9, residues 22-730: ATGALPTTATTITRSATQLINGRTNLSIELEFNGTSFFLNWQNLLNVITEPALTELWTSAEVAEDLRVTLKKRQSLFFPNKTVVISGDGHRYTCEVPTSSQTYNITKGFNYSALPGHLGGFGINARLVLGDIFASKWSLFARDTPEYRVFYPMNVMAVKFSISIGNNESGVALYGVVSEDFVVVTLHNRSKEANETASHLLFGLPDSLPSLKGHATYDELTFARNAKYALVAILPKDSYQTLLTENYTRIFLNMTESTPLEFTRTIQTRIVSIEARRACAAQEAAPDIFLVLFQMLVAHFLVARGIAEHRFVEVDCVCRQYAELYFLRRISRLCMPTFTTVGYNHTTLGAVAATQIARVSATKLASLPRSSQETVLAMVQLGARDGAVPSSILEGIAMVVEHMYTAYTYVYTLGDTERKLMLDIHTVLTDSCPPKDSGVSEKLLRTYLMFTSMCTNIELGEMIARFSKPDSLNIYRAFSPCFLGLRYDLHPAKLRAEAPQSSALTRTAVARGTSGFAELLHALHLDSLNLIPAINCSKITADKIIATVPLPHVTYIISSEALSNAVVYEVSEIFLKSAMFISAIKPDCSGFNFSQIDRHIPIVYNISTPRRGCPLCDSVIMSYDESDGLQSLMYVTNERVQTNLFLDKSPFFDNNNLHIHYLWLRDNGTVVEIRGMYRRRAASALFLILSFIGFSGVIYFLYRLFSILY
UniProt P29317, residues 24-976: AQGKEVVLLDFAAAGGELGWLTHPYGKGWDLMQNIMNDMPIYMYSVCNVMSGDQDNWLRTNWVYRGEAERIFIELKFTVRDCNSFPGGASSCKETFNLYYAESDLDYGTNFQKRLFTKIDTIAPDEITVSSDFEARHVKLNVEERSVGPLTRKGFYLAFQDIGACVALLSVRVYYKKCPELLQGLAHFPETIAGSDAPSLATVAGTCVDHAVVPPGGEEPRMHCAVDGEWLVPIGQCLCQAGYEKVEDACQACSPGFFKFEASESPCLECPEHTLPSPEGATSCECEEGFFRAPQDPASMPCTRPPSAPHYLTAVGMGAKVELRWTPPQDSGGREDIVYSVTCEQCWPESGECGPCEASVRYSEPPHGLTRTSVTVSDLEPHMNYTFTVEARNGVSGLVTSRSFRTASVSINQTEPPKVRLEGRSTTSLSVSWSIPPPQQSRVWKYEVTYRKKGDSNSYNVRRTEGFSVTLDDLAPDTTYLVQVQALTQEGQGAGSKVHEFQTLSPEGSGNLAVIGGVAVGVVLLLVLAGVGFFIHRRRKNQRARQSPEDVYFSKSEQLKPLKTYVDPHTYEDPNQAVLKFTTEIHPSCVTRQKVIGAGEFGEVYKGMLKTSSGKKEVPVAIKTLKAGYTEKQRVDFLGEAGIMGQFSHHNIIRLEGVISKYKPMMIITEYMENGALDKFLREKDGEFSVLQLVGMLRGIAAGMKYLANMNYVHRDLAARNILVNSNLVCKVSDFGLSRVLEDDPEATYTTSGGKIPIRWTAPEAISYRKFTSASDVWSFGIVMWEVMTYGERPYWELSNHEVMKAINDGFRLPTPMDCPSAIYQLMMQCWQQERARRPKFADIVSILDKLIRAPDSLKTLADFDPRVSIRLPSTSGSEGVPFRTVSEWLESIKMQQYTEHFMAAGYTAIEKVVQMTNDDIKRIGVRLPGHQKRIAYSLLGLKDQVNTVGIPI

This experiment concerns the target V5-tagged KSHV gH (glycoprotein H), alone (Kaposi's sarcoma-associated herpesvirus (KSHV)) (UniProt F5HAK9). Briefly: co-IP; gH-V5/gL-Flag complexes (input normalised) from NP40 lysates of transfected 293T cells pre-coupled to V5-tag antibody and ProteinG sepharose, one wash, then incubated overnight at 4°C with equal amounts of lysate of 293T cells transfected with full-length EphA2-myc (KSHV gH/gL) or full-length EphB3-myc (RRV gH/gL); 3 washes in NP40 lysis buffer; Western blot via the tags. On the technique in general: In western blotting, separated proteins are transferred to a membrane and probed.

No constants are given. Whether binding was seen depends on the method and setting. Binding seen in cells or lysates may run through a third protein.

On to “myc-tagged full-length EphA2 (from UniProt P29317-1 24-976) (receptor)”, for which the binding result is on record as “no binding”.
